{"source": "patent US4156427A", "about": "“Injectable male animal sterilant for selectively controlling the function of testes” (priority 1977, dated 1979)", "key": {"[1]": {"test_system": "male reproduction of sexually mature rats", "conditions": "rat, i.p., per 1 g liver"}, "[2]": {"test_system": "male reproduction of sexually mature rats", "conditions": "rat, oral, per 1 g liver"}}, "note": "Where two headings read alike, the source gives them in different places."}
{"smiles": "O=S(=O)([O-])[O-].[Zn+2]", "note": "[zinc sulfate]", "values": [{"measurement": "μM PCA 1 g liver", "setting": "[1]; 0.5 mg ZnSO4.7H2 O daily 30 days", "value": "1.86 ± 0.24", "unit": "µM"}, {"measurement": "μM PCA 1 g liver", "setting": "[1]; 1.0 mg ZnSO4.7H2 O daily 30 days", "value": "1.62 ± 0.12", "unit": "µM"}, {"measurement": "μM PCA 1 g liver", "setting": "[1]; 5.0 mg ZnSO4.7H2 O daily 30 days", "value": "1.17 ± 0.06", "unit": "µM"}, {"measurement": "μM PCA 1 g liver", "setting": "[2]; 15 mg ZnSO4.7H2 O daily 30 days", "value": "2.23 ± 0.26", "unit": "µM"}, {"measurement": "μM PCA 1 g liver", "setting": "[2]; 50 mg ZnSO4.7H2 O daily 30 days", "value": "2.63 ± 0.22", "unit": "µM"}]}
